In PubChem BioAssay AID248 (DTP/NCI, 2004):
The list is a part of this screen's results and no random one: it is rich in T/C values a quarter to a half above the control, in often repeated tests (any T/C) and in doses without a T/C. Other doses and runs of a compound stand elsewhere. T/C is the treated group as % of the vehicle group. Some entries give survivors of the animals treated and no T/C: the source holds a T/C of zero for them, seemingly a mark for toxic or unscored doses. Some survivor counts are full or nearly so, which does not show that the dose was tolerated: the source hardly ever lists a survival T/C far under the control, and the zero likely stands for such cases as well. Counts of survivors are from the toxicity check (mostly the fifth day) where no day follows; animals may have died later. Schedules are NCI's codes, taken here to give the interval after Q, in days (D) or hours (H), and the number of doses after X. Where survival is the endpoint, this PubChem deposit counts one and a half times the control or more as active, and values a quarter to a half above the control carry no call in these data; other NCI protocols may use other cut-offs. Some entries hold several experiments; the values are given in rising order.

Test system: L1210 leukemia ip in BDF1 mice, survival T/C
Experiment: NCI In Vivo Anticancer Drug Screen. Data for tumor model L1210 Leukemia (intraperitoneal) in B6D2F1 (BDF1) mice
Conditions: T/C endpoint: mean survival time, higher T/C = longer survival

Compound	T/C (dose: 42.0 mg/kg/injection, schedule: Q01DX015 (ip), vehicle: other)	T/C (dose: 80.0 mg/kg/injection, schedule: Q01DX009 (ip), vehicle: carboxymethylcellulose (CMC))	survivor count (dose: 160.0 mg/kg/injection, schedule: Q01DX009 (ip), vehicle: carboxymethylcellulose (CMC))	T/C (dose: 176.0 mg/kg/injection, schedule: Q01DX001 (ip), vehicle: carboxymethylcellulose (CMC))	T/C (dose: 200.0 mg/kg/injection, schedule: Q01DX001 (ip), vehicle: other)	survivor count (dose: 200.0 mg/kg/injection, schedule: Q01DX015 (ip), vehicle: other)	T/C (dose: 268.0 mg/kg/injection, schedule: Q01DX001 (ip), vehicle: carboxymethylcellulose (CMC))	survivor count (dose: 320.0 mg/kg/injection, schedule: Q01DX009 (ip), vehicle: carboxymethylcellulose (CMC))	T/C (dose: 400.0 mg/kg/injection, schedule: Q01DX001 (ip), vehicle: carboxymethylcellulose (CMC))	T/C (dose: 400.0 mg/kg/injection, schedule: Q01DX001 (ip), vehicle: other)	T/C (dose: 600.0 mg/kg/injection, schedule: Q01DX001 (ip), vehicle: carboxymethylcellulose (CMC))	survivor count (dose: 150.0 mg/kg/injection, schedule: Q01DX001 (ip), vehicle: saline)	survivor count (dose: 300.0 mg/kg/injection, schedule: Q01DX001 (ip), vehicle: saline)
CCCCOC(=O)c1[nH]cnc1/N=N\N(C)C	132 % of control	127 and 131 % of control	6 of 6	125 % of control	125 % of control	6 of 6	129 % of control	4 of 6	135 % of control	144 % of control	125 % of control	–	–
Cc1ccnc2c(N)cccc12	–	–	–	–	–	–	–	–	–	–	–	2 of 6	0 of 6
